Measurements taken from paper PMC6320370.
No constants are given. Whether binding was seen depends on the method and setting. Some binding calls cover weakened binding; strength is not graded here.

Sequences of proteins named here, by UniProt entry; tags and fusion partners are left off.
UniProt Q9CXC9: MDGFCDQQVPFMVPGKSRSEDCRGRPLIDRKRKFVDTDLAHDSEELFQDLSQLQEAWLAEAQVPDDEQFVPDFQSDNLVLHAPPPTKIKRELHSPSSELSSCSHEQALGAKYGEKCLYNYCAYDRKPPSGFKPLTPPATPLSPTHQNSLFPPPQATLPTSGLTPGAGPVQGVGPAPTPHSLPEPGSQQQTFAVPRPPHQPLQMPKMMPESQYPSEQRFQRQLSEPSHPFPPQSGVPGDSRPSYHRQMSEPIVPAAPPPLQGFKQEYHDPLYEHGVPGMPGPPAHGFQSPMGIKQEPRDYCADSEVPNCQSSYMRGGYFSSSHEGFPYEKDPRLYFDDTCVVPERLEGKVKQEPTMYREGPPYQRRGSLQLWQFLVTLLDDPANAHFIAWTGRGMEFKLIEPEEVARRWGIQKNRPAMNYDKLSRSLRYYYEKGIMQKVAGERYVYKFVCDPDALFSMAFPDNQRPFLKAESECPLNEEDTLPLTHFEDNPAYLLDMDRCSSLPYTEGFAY

Molecular target: Etv5 (mouse (endogenous in murine leukemic B-cell progenitors)) (UniProt Q9CXC9)
Assay: western blot of whole cell lysate; western blot of Etv5 in WT, aPKCζ-/-, aPKCλΔ/Δ and DKO B-cell progenitors with or without BCR-ABL expression; RIPA lysates, SDS-PAGE

Substance: Etv5 (from UniProt Q9CXC9 1-510)
- binding: binds
